Measurements: article PMC2504490

Amino acid sequences for entries named in this document (tags omitted). A change or cut given only in a name is not applied to a line headed by its entry.
UniProt O45346: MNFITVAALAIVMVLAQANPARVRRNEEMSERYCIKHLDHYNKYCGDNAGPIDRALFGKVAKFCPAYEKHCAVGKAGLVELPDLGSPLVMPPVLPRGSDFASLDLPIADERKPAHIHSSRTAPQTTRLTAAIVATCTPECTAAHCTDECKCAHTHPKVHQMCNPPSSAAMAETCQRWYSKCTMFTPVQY
UniProt P14585: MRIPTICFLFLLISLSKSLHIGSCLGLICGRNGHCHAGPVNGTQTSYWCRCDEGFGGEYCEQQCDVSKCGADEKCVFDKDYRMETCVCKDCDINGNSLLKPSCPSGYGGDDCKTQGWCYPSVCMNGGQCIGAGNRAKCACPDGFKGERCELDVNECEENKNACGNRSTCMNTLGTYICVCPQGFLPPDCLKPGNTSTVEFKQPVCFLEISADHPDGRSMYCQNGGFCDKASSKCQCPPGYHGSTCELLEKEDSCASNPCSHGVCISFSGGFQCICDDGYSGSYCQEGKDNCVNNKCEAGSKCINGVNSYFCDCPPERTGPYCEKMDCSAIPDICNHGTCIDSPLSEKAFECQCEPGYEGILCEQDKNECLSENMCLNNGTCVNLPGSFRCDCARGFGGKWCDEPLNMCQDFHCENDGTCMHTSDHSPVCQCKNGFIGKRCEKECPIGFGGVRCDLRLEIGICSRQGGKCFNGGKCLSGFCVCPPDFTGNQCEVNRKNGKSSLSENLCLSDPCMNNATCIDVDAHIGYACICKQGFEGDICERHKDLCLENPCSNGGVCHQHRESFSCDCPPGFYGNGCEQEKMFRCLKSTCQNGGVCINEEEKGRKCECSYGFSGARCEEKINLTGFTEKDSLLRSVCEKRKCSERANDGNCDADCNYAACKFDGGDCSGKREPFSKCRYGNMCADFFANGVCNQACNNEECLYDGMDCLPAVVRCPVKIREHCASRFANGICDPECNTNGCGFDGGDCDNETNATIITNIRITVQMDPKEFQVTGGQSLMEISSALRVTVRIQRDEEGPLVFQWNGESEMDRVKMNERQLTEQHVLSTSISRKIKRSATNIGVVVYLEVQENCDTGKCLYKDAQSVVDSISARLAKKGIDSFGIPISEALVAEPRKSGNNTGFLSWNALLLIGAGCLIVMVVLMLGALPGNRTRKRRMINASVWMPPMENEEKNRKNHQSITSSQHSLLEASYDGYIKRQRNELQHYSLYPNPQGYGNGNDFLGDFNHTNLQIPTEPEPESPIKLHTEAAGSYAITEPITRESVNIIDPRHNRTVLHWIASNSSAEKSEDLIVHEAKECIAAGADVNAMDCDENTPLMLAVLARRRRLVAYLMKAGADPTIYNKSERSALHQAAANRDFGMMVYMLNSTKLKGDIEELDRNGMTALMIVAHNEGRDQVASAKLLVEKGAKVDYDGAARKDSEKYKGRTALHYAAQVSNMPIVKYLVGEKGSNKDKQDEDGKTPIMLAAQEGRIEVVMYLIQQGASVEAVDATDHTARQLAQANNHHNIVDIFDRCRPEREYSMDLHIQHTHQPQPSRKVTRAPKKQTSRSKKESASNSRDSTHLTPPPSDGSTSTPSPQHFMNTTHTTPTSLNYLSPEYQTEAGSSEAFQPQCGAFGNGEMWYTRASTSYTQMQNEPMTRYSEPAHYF

Experiments:
DSL-1 (C. elegans) [1] = molecular target: T1, DSL-1 (C. elegans) (UniProt O45201); test: two-hybrid; yeast two-hybrid of OSM-11 against DSL-1 or LAG-2; which partner was fused to DB and which to AD is not told
T1 sequence: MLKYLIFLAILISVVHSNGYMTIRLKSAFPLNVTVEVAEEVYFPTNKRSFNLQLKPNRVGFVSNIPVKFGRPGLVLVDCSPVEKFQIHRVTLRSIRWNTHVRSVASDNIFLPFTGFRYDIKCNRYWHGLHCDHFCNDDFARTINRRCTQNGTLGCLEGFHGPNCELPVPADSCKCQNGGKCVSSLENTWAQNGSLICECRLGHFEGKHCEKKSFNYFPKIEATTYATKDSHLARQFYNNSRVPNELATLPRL

[2] = molecular target: T2, LAG-2 extracellular domain (C. elegans) (UniProt P45442); test: as above
T2 sequence: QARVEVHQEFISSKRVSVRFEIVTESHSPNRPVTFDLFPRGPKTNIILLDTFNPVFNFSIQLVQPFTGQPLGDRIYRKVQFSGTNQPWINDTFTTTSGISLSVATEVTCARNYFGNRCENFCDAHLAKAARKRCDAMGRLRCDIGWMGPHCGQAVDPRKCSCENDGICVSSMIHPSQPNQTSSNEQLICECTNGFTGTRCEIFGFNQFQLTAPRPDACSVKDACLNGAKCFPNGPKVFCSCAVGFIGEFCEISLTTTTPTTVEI

DSL-1 (C. elegans) [3] = molecular target: T1, DSL-1 (C. elegans); test: two-hybrid; yeast two-hybrid; ligands fused to the GAL4 DNA binding domain (DB), the first six LIN-12 EGF repeats fused to the GAL4 activation domain (AD); positive interactions indicated by blue staining
[4] = molecular target: T2, LAG-2 extracellular domain (C. elegans); test: as above
LIN-3 (C. elegans) = molecular target: T3, LIN-3 (C. elegans) (UniProt Q03345); test: as above
T3 sequence: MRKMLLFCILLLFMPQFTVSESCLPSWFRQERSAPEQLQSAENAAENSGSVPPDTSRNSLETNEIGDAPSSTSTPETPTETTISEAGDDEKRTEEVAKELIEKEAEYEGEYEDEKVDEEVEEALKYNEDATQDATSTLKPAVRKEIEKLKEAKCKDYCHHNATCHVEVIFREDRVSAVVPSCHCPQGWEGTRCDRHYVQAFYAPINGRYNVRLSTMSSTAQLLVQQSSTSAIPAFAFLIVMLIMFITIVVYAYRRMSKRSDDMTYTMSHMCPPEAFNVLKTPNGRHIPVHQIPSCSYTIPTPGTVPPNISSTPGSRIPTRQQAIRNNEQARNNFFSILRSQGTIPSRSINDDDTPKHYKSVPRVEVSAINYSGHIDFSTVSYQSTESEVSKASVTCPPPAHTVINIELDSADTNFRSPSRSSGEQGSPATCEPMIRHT

OSM-11 (C. elegans) = OSM-11 (C. elegans) (UniProt O45346); test: as above

binding (DSL-1 (C. elegans) [1])	binding [2]	binding (DSL-1 (C. elegans) [3])	binding [4]	binding (LIN-3 (C. elegans))	binding (OSM-11 (C. elegans))	Substance
no binding	no binding					OSM-11 (from UniProt O45346) (ligand)
		binds	binds	no binding	binds	LIN-12 extracellular EGF repeats 1 through 6 (from UniProt P14585) (domain or fragment)

No constants are given. Whether binding was seen depends on the method and setting. For part of these data: Binding can be weak; no strength is given.
